Measured data: PubChem BioAssay AID1159579 (Peter MacCallum Cancer Centre, 2015)
Here is a random part of about 2,000 deposited reagents. 549 of them (27%) were called active. 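Some migration ratios are negative; siRNAs with too few cells are inactive whatever their migration ratio.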 The numbers tell different reagents against one gene apart. Not given: the time to read-out.

Test: 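Follow-up screen seeking modulators of motility in lymphatic endothelial cells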 (follow-up of hits)
System: human dermal lymphatic endothelial cells
Knock-down reagent: single siRNA against human genes, 25 nM
Measurement: 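High content images of wound closure area and cell nuclei counts, each the average of two wells, expressed against mock transfection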
Direction: migration relative to mock: higher = more migration into the scratch; mean nuclei count: higher = more cells remaining
Active means: 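a ratio of at most 0.6 or at least 1.3 marks altered migration and an active call; a mean nuclei count under 3300 forces an inactive call regardless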
Meaning of the calls: active = migration changed (impaired or accelerated); inactive = no migration change, or too few cells

| Gene | siRNA no. | migration relative to mock | migration and cell number class | mean nuclei count | Outcome |
| --- | --- | --- | --- | --- | --- |
| SPATS1 | 1 | 0.7 | no change in migration or cell number | 6598 | inactive |
| SPATS1 | 2 | 0.74 | no change in migration or cell number | 5974 | inactive |
| SPATS1 | 3 | 0.73 | no change in migration or cell number | 5288 | inactive |
| SPATS1 | 4 | 0.29 | migration reduced | 3557 | active |
| BLM | 1 | 0.73 | no change in migration or cell number | 6335 | inactive |
| BLM | 2 | 0.81 | no change in migration or cell number | 6498 | inactive |
| BLM | 3 | 1.4 | migration increased | 5962 | active |
| BLM | 4 | 0.94 | no change in migration or cell number | 4508 | inactive |
| FAM209B | 1 | 0.98 | no change in migration or cell number | 5773 | inactive |
| FAM209B | 2 | 0.83 | no change in migration or cell number | 6106 | inactive |
| FAM209B | 3 | 0.84 | no change in migration or cell number | 5298 | inactive |
| FAM209B | 4 | 0.91 | no change in migration or cell number | 4409 | inactive |

Entries listed so far marked active:
| Gene | siRNA no. | migration relative to mock | migration and cell number class | mean nuclei count | Outcome |
| --- | --- | --- | --- | --- | --- |
| SPATS1 | 4 | 0.29 | migration reduced | 3557 | active |
| BLM | 3 | 1.4 | migration increased | 5962 | active |

More entries:
| Gene | siRNA no. | migration relative to mock | migration and cell number class | mean nuclei count | Outcome |
| --- | --- | --- | --- | --- | --- |
| IRF8 | 1 | 1.02 | no change in migration or cell number | 5696 | inactive |
| IRF8 | 2 | 0.09 | migration reduced | 4692 | active |
| IRF8 | 3 | 0.74 | no change in migration or cell number | 6126 | inactive |
| IRF8 | 4 | 0.72 | no change in migration or cell number | 6444 | inactive |
| FERMT3 | 1 | 0.94 | no change in migration or cell number | 6452 | inactive |
| FERMT3 | 2 | 0.85 | no change in migration or cell number | 6390 | inactive |
| FERMT3 | 3 | 1.12 | no change in migration or cell number | 6140 | inactive |
| FERMT3 | 4 | 0.82 | no change in migration or cell number | 4860 | inactive |
| ZNF683 | 1 | 0.94 | no change in migration or cell number | 5468 | inactive |
| ZNF683 | 2 | 0.64 | no change in migration or cell number | 4467 | inactive |
| ZNF683 | 3 | 0.74 | no change in migration or cell number | 5300 | inactive |
| ZNF683 | 4 | 0.76 | no change in migration or cell number | 5392 | inactive |
| SLC60A2 | 1 | 0.52 | migration reduced | 6422 | active |
| SLC60A2 | 2 | 0.94 | no change in migration or cell number | 7064 | inactive |
| SLC60A2 | 3 | 1.04 | no change in migration or cell number | 6460 | inactive |
| SLC60A2 | 4 | 0.44 | too few cells; migration not scored | 2962 | inactive |
